Data from patent publication US7371869B2, “Substituted hydantoins” (Hoffmann-La Roche Inc., priority 2004, dated 2008).
Some of these results come from one statement about several compounds together.

Test system: MEK
Test: MEK cascade assay (bead-based FP IMAP assay with MEK cascade components)
Format: biochemical
Settings: c-RAF/MEK/ERK cascade, 50 μM ATP, FITC-labeled ERK peptide substrate

IC50, < 20 µM:
COC(=O)c1csc(NC(=O)[C@H](CC(C)C)N2C(=O)N[C@@H](c3ccccc3)C2=O)n1 [Example 1, 2-[(S)-2-((S)-2,5-Dioxo-4-phenyl-imidazolidin-1-yl)-4-methyl-pentanoylamino]-thiazole-4-carboxylic acid methyl ester]
COC(=O)c1csc(NC(=O)[C@H](Cc2ccccc2)N2C(=O)NC(c3ccc(OC)c(F)c3)C2=O)n1 (stereo partly drawn) [Example 3, 2{(S)-2-[4-(3-Fluoro-4-methoxy-phenyl)-2,5-dioxo-imidazolidin-1-yl]-3-phenyl-propionylamino}-thiazole-4-carboxylic acid methyl ester]
COC(=O)c1csc(NC(=O)[C@H](Cc2ccccc2)N2C(=O)N[C@H](c3ccccc3)C2=O)n1 [Example 10, 2-[(S)-2-(2,5-Dioxo-(R)-4-phenyl-imidazolidin-1-yl)-3-phenyl-propionylamino]-thiazole-4-carboxylic acid methyl ester]
COC(=O)c1csc(NC(=O)[C@H](Cc2ccccc2)N2C(=O)NC(c3ccc(OC)c(C)c3)C2=O)n1 (stereo partly drawn) [Example 13, 2-{(S)-2-[4-(4-Methoxy-3-methyl-phenyl)-2,5-dioxo-imidazolidin-1-yl]-3-phenyl-propionylamino}-thiazole-4-carboxylic acid methyl ester]
COc1ccc([C@H]2NC(=O)N([C@@H](Cc3ccccc3)C(=O)Nc3nc(C(=O)N(C)OC)cs3)C2=O)cc1 [Example 15, 2-{(S)-2-[(R)-4-(4-Methoxy-phenyl)-2,5-dioxo-imidazolidin-1-yl]-3-phenyl-propionylamino}-thiazole-4-carboxylic acid methoxy-methyl-amide]
CC(=O)c1csc(NC(=O)[C@H](Cc2ccccc2)N2C(=O)NC(c3ccccc3)C2=O)n1 (stereo partly drawn) [Example 16, (S)—N-(4-Acetyl-thiazol-2-yl)-2-(2,5-dioxo-4-phenyl-imidazolidin-1-yl)-3-phenyl-propionamide]
NC(=O)c1csc(NC(=O)[C@H](Cc2ccccc2)N2C(=O)NC(c3ccccc3)C2=O)n1 (stereo partly drawn) [Example 17, 2-[(S)-2-(2,5-Dioxo-4-phenyl-imidazolidin-1-yl)-3-phenyl-propionylamino]-thiazole-4-carboxylic acid amide]
CN(C)C(=O)c1csc(NC(=O)[C@H](Cc2ccccc2)N2C(=O)NC(c3ccccc3)C2=O)n1 (stereo partly drawn) [Example 18, 2-[(S)-2-(2,5-Dioxo-4-phenyl-imidazolidin-1-yl)-3-phenyl-propionylamino]-thiazole-4-carboxylic acid dimethylamide]
